Data: paper PMC5149529

By UniProt entry, the sequences of proteins in these tests, tags left out.
UniProt P70288: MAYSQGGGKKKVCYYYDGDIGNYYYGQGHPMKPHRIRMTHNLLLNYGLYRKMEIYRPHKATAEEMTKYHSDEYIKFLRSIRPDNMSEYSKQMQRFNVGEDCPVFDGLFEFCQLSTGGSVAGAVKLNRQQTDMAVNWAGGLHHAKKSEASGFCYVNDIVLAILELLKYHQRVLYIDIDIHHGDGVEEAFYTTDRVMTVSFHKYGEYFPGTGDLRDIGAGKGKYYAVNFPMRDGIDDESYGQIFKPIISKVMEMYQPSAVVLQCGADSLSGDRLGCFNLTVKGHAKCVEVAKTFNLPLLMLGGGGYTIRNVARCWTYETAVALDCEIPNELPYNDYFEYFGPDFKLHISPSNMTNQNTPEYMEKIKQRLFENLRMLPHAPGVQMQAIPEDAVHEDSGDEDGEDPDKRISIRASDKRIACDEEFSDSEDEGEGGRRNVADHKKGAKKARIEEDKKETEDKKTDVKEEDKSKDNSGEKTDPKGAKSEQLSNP
UniProt A2A8L1: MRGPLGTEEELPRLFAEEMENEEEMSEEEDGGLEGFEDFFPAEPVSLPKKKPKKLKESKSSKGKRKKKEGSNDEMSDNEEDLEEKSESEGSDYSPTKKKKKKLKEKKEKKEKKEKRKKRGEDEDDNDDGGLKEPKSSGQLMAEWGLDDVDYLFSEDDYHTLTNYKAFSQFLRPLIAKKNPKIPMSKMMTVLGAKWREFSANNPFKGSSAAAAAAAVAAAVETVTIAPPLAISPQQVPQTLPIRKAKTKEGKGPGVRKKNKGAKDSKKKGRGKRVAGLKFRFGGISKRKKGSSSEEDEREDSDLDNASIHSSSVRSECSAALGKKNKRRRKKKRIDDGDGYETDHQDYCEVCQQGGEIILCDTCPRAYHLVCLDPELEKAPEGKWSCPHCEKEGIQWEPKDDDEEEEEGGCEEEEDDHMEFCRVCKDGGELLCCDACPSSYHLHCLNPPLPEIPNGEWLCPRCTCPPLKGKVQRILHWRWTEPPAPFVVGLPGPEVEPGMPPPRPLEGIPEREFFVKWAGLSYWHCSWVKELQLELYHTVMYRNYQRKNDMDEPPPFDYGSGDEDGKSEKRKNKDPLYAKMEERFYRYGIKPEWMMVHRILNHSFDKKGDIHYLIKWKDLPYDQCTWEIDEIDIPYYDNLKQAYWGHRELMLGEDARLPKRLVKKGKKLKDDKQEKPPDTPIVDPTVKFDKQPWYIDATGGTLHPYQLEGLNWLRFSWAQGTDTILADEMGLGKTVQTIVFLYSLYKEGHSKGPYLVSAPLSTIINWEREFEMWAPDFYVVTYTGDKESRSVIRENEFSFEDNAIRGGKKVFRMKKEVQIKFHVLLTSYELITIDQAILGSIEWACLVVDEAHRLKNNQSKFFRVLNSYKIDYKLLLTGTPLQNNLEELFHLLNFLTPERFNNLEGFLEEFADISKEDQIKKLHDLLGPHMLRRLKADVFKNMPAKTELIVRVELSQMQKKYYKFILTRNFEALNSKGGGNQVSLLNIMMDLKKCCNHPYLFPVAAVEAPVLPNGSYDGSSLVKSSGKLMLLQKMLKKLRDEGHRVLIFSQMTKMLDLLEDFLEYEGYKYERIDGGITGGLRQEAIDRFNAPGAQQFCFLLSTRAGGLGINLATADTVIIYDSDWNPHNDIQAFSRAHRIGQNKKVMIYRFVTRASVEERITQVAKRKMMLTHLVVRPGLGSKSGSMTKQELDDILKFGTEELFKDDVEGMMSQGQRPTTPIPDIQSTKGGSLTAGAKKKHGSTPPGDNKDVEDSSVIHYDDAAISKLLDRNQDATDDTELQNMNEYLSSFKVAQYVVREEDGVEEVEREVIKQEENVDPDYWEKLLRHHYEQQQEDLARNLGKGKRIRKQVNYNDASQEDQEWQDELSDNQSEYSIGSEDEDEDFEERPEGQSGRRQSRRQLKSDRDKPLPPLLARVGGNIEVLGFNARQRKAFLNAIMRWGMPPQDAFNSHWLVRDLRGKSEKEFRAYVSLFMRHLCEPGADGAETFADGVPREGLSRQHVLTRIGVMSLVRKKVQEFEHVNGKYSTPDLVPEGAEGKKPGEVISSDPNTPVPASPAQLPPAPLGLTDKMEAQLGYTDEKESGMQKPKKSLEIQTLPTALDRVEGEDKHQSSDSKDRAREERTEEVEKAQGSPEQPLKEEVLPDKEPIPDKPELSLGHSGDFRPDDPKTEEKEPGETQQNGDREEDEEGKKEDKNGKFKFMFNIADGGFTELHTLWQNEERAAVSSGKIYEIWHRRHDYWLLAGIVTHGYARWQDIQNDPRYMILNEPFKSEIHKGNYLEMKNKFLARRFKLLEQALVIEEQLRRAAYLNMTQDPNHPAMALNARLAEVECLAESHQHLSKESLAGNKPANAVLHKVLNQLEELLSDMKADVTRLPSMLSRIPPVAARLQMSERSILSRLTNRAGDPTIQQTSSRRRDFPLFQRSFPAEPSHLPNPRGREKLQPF
UniProt B1AR17: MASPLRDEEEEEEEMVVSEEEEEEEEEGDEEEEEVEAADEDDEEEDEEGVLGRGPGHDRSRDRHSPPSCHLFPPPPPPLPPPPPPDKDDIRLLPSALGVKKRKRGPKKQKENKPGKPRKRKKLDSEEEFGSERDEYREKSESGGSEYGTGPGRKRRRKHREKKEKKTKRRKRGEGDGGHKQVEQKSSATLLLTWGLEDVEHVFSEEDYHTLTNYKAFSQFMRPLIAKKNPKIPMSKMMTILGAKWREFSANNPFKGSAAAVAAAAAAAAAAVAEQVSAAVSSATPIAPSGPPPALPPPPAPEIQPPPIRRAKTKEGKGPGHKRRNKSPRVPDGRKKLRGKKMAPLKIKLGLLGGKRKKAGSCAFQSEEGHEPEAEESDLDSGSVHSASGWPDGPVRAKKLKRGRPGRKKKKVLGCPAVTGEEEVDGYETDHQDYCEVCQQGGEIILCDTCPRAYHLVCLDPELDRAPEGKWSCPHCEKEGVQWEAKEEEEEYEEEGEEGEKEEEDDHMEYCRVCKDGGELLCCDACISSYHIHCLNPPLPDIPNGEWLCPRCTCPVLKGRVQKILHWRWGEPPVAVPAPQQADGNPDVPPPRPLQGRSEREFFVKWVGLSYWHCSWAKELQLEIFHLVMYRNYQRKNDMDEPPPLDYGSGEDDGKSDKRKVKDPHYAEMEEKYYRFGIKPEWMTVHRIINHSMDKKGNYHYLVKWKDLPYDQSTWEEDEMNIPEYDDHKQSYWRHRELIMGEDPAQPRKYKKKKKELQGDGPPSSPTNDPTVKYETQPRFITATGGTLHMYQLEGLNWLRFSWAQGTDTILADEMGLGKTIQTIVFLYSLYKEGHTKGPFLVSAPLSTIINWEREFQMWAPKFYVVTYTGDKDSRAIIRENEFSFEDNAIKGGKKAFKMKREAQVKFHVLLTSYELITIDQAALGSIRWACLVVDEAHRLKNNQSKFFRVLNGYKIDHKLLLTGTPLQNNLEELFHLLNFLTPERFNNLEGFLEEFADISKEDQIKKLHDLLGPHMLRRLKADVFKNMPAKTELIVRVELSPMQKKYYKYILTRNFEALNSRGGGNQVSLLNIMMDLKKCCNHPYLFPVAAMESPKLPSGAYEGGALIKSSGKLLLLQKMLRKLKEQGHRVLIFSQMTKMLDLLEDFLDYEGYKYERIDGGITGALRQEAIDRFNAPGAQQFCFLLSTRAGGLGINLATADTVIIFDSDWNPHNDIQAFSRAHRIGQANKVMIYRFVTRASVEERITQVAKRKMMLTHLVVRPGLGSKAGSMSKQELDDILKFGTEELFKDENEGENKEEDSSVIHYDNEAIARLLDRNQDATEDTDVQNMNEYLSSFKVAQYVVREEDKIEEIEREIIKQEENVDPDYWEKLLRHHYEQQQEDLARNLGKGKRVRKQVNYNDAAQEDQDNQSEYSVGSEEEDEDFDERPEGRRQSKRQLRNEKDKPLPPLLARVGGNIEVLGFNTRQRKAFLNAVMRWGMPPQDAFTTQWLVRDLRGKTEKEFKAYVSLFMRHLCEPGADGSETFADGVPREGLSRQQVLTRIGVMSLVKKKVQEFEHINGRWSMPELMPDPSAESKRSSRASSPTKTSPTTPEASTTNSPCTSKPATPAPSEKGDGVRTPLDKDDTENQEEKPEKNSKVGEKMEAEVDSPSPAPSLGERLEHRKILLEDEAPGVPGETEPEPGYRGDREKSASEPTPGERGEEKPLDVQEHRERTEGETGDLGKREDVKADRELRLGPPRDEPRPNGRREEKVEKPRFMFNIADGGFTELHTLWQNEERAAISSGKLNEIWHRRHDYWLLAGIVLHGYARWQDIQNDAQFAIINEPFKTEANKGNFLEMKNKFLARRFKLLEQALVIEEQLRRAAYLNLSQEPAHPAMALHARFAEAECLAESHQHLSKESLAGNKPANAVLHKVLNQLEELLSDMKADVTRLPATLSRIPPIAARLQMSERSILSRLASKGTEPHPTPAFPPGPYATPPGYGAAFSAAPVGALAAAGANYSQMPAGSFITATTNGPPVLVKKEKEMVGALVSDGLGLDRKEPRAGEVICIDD

Target: HDAC2 (mouse (endogenous in embryonic cortex)) (UniProt P70288)
Assay: affinity purification with mass spectrometry; lysates of mouse cortices dissected at E12.5, E15.5 and E18.5 incubated with HDAC2 antibody or normal IgG; immune complexes eluted, digested with lys-C and trypsin, MS/MS

binding | Substance
binds | CHD5 (from UniProt A2A8L1 1-1946)
binds | CHD3 (from UniProt B1AR17 1-2055)

Results are given in words; binding and its absence hold for the method and conditions named. Binding seen in cells or lysates may run through a third protein. A yes stands for co-enrichment or nearness to the bait. Other partners may have been found.
